Test results as given in PubChem BioAssay AID493014 (National Center for Advancing Translational Sciences (NCATS), 2011).
Some of the results follow. Further columns of the screen follow, without active or inactive calls. Compounds called inactive in the main read-out are mostly missing here. The note in brackets gives the kind of curve behind each potency; many fits are weak.

Test: qHTS Assay to Find Inhibitors of Chronic Active B-Cell Receptor Signaling
Details: ABC-DLBCL IkBa-CBG/CBR reporter, luminescence ratio (green luciferase fused to IkBa over red control in TMD8 lymphoma cells), 4 h
Method in brief: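 Doxycycline induced both beetle luciferases in TMD8 lymphoma cells; IKK-driven degradation limits the IkappaBalpha-fused green signal, while red luminescence normalises for cell number and nonspecific effects. Compounds tested up to 46 uM, 4 hrs.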

[1] = measured here: CBR red luminescence, cell number
[2] = measured here: IkBa-CBG green luminescence

Compound	AC50 [1]	AC50 [2]
Brc1c(OCCOCCn2cncn2)ccc2ccccc12	1.84 µM [rising, partial curve, poor fit]	
COc1ccc(-c2cc(C(=O)N(C)CC(=O)Nc3ccccc3Br)c3ccccc3n2)cc1OC	6.51 µM [rising, single point]	
CC(=O)Nc1ccc(NC(=O)CSc2ccc(C)cc2)cc1	3.26 µM [falling, single point]	
O=C1/C(=C/c2ccc(Br)cc2)Oc2cc(O)ccc21	0.501 µM [rising, full curve, poor fit]	
COc1ccc2[nH]c(C(=O)N/N=C/c3cc(OC)c(OC)c(OC)c3)cc2c1	10 µM [falling, partial curve]	
CCCOc1cccc(C2/C(=C(/O)c3ccc4c(c3)CC(C)O4)C(=O)C(=O)N2CCN2CCOCC2)c1 (stereo unspecified)	0.708 µM [rising, full curve]	
Cn1c2ccccc2c(=O)c2c(=O)n(Cc3ccco3)c(-c3ccc(C(C)(C)C)cc3)nc21	8.91 µM [falling, partial curve, poor fit]	
CCO[C@@H]1OC(C(=O)N2CCN(Cc3ccc4c(c3)OCO4)CC2)=C[C@H](c2csc3ccccc23)[C@H]1CCCO	6.31 µM [rising, single point]	
CC(C)(C)n1ncc2c(=O)n(CC(=O)N3CCc4ccccc43)cnc21	12.6 µM [falling, partial curve, poor fit]	
C/C(=N\NC(=O)CSc1nc2ccccc2s1)c1ccco1	20.6 µM [falling, single point]	
C/C(CC(=O)Nc1ccc(C)c(Cl)c1)=N\NC(=O)c1cccc(O)c1	2.82 µM [falling, partial curve]	
Cc1ccccc1NC(=O)C1CCC(=O)N1 (stereo unspecified)	20 µM [rising, single point]	
COc1ccc(S(=O)(=O)N(C)C[C@H]2Oc3c(NC(=O)Nc4ccc(C(F)(F)F)cc4)cccc3C(=O)N([C@H](C)CO)C[C@@H]2C)cc1	18.4 µM [falling, partial curve, poor fit]	
COC(=O)CN(c1ccc(OC)cc1)S(=O)(=O)c1ccc(OC)c(OC)c1	16.4 µM [rising, partial curve]	
COc1cccc2cc(-c3cn4c(n3)sc3cc(F)ccc34)c(=O)oc12	0.708 µM [falling, full curve]	
COc1ccc(C(=O)NCC(c2cccs2)S(=O)(=O)c2ccc(F)c(C)c2)cc1 (stereo unspecified)	11.2 µM [rising, single point]	
Cc1ccc(F)c([C@H]2[C@@H]3C=CCC[C@@]3(C)C(=O)N2Cc2ccccc2)c1	14.1 µM [falling, single point]	
CCOc1ccc(CCNC(=O)c2cccc(NC3=NC4CS(=O)(=O)CC4S3)c2)cc1OCC (stereo unspecified)	2.51 µM [rising, partial curve, poor fit]	
C=CCn1c(O)c(N=NC(=S)Nc2ccccc2C)c2cc(S(=O)(=O)N3CCOCC3)ccc21	29.1 µM [rising, single point]	2.06 µM [falling, partial curve, poor fit]
O=C(CCN1C(=O)COc2ccccc21)NCCC1=CCCCC1	25.9 µM [rising, partial curve, poor fit]	

Compound	AC50 [1]	AC50 [2]
O=C(Nc1ccc(Cl)c(Cl)c1)Oc1ccc(NC(=O)c2ccco2)cc1	2.06 µM [rising, partial curve, poor fit]	
Cc1c(CCC(=O)NCCC(=O)O)c(=O)oc2cc3occ(-c4ccccc4)c3cc12	17.8 µM [rising, single point]	
COc1ccc(-c2cc(C(=O)Nc3ccccc3SC)no2)cc1	1.03 µM [falling, full curve, poor fit]	
O=C(Nc1ccccc1NC(=O)NC1CCCCC1)NC1CCCCC1	0.731 µM [falling, full curve, poor fit]	
O=C(/C=C/c1ccccc1)Oc1cccc2cccnc12	5.01 µM [falling, full curve]	5.62 µM [falling, single point]
Cc1ccc(S(=O)(=O)N(C)c2c(C)ccc(S(=O)(=O)Nc3ccncc3)c2C)cc1	23.1 µM [rising, partial curve, poor fit]	
Nc1ncnc(Oc2cccc3cccnc23)c1[N+](=O)[O-]	22.4 µM [falling, single point]	35.5 µM [falling, single point]
COc1cc2cc(Oc3ccc4ccc(=O)oc4c3)c(=O)oc2cc1OC(=O)/C=C/c1ccccc1	8.91 µM [rising, partial curve, poor fit]	
CCOc1ccccc1OCc1nn2c(COc3ccccc3)nnc2s1	29.1 µM [rising, single point]	
Nc1ccc2nc(CCCCCCCCc3nc4ccc(N)cc4[nH]3)[nH]c2c1	0.794 µM [falling, full curve, poor fit]	
Cc1ccc(-c2csc(NC(=O)c3ccc(-c4ccccc4)cc3)n2)o1	14.6 µM [falling, partial curve, poor fit]	
CC(=O)Nc1nnc(COc2ccc(Cl)cc2)s1	11.2 µM [falling, partial curve, poor fit]	
Cc1nc2c(Br)cc(Br)cc2cc1O		29.1 µM [rising, partial curve, poor fit]
FC(F)(F)c1ccccc1NC(=S)NN=C1CCCCCC1	10 µM [falling, partial curve]	25.1 µM [falling, single point]
CC1CC(C)CN(C(=O)COC(=O)c2cc3ccccc3oc2=O)C1 (stereo unspecified)	0.13 µM [rising, full curve, poor fit]	
CC(C)(C)N(NC(=O)Nc1ccccc1)C(=O)c1ccccc1Cl	0.891 µM [falling, full curve, poor fit]	
Cc1ccc(-c2csc3ncnc(OCC(=O)NC(=O)NCc4ccco4)c23)cc1	12.6 µM [falling, partial curve, poor fit]	
CC(C)CN(C(=O)COC(=O)C12CC3CC(CC(C3)C1)C2)c1c(N)n(Cc2ccccc2)c(=O)[nH]c1=O	0.651 µM [rising, full curve]	
NC(N)=Nc1nc(-c2ccccc2)c2cc(Cl)ccc2n1	3.98 µM [falling, partial curve, poor fit]	3.16 µM [rising, full curve]
Nc1c(NCCCN2CCOCC2)c2ccccc2oc1=O	5.17 µM [falling, full curve]	

Compound	AC50 [1]	AC50 [2]
N#Cc1c2c(c(Nc3ccc(O)cc3)n3c1nc1ccccc13)CCC2	18.4 µM [falling, single point]	
O=[N+]([O-])c1ccc(N=Nc2c(O)[nH]c3ccc(F)cc23)cc1	0.0891 µM [rising, full curve, poor fit]	
CC1CCCN(C(=O)c2cccc(S(=O)(=O)Nc3cc(C(F)(F)F)ccc3Cl)c2)C1 (stereo unspecified)	29.1 µM [falling, single point]	
Cc1ccccc1NC1=C/C(=N\S(=O)(=O)c2ccc(C(=O)O)cc2)c2ccccc2C1=O	5.01 µM [falling, full curve, poor fit]	
CCCC1(C(=O)OCC)NC(c2cc(OC)c(OC)c(OC)c2)C2C(=O)N(CC)C(=O)C21 (stereo unspecified)	5.8 µM [rising, full curve, poor fit]	
O=[N+]([O-])c1ccc(N/N=C\c2ccccc2OCc2ccccc2)cc1	9.2 µM [rising, partial curve]	
CC1CC(C)CN(CCCNC(=O)CCNC(=O)Cn2cnc3ccccc3c2=O)C1 (stereo unspecified)	0.112 µM [rising, full curve, poor fit]	
CSc1ccccc1NC(=O)COc1ccccc1C	35.5 µM [falling, single point]	
O=C1CCCCCN1Sc1ccccc1	35.5 µM [rising, single point]	25.1 µM [falling, single point]
COc1cccc(C(=O)Nc2cccc(OCC(=O)O)c2)c1	16.4 µM [falling, single point]	
CCN1C(=O)NC2=C(C(=O)c3ccccc32)C1c1ccccc1F (stereo unspecified)	0.164 µM [falling, full curve, poor fit]	
Cc1cc(C)cc(N(CC(=O)NC2CCCC2)C(=O)CCC(=O)Nc2cc(C)ccn2)c1	4.47 µM [falling, single point]	
O=C(NC(=S)Nn1cnnc1)c1ccccc1Br	0.708 µM [falling, full curve, poor fit]	
COc1cc(NC(=O)CC(C)S(=O)(=O)c2cc3c(cc2C)NC(=O)CO3)cc(OC)c1OC (stereo unspecified)	11.2 µM [rising, partial curve, poor fit]	
O=C(N/N=C/c1cccs1)C(=O)Nc1cccc(Cl)c1	11.2 µM [falling, partial curve]	
O=C(Oc1ccc(F)cc1)c1cccnc1	15.8 µM [rising, single point]	
COc1ccc(Cl)c(OC)c1C(=O)NC(=O)Nc1nc(C)nc(C)n1	35.5 µM [falling, partial curve, poor fit]	
CCn1cc(C(=O)OCC(=O)c2cc(C)n(-c3ccccc3F)c2C)c(=O)c2ccc(C)nc21	4.11 µM [rising, full curve, poor fit]	
O=c1c(Cl)c(NCCCO)cnn1-c1nc2ccccc2[nH]1	7.08 µM [falling, full curve]	
Cc1cc(C(=O)NNC(=O)c2ccccc2[N+](=O)[O-])c(C)o1	5.17 µM [falling, partial curve]	

Record cards (already shown):
Cc1cc(C)cc(N(CC(=O)NC2CCCC2)C(=O)CCC(=O)Nc2cc(C)ccn2)c1 reads AC50 [1]: 4.47 µM [falling, single point]
COc1ccc2[nH]c(C(=O)N/N=C/c3cc(OC)c(OC)c(OC)c3)cc2c1 reads AC50 [1]: 10 µM [falling, partial curve]
COC(=O)CN(c1ccc(OC)cc1)S(=O)(=O)c1ccc(OC)c(OC)c1 reads AC50 [1]: 16.4 µM [rising, partial curve]
